PubChem BioAssay AID1508597 | Cure First | 2020
This is a random part of the about 2,100 reagents, in one setting of the screen. 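Calls flag viability under 80% in either arm, not effects specific to rucaparib; the reference for percent is not stated.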 Unmarked entries are inactive. Some reagents were tested in more than one well and are listed for each. Reagent sequences are not shown. Not stated in the record: the 100% reference.

Screen: 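Genes whose silencing sensitises or protects ovarian cancer cells against rucaparib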 (primary screen)
Cells: human ovarian carcinoma lines grown from tumours: OCI-P5x (papillary serous) and OCI-C5x (clear cell)
Reagents: siRNA pool against human genes, 1.25 pmol siRNA per well
Duration: 72 h or 96 h, depending on the cell culture
Treatment: rucaparib 20 µM (about IC30) or vehicle, present until read-out
Rucaparib or vehicle: Rucaparib
Cell line: OCI-P5x (serous)
Measured: 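ATP luminescence measured at 72 or 96 h according to the culture, then normalised and expressed as percent viability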
Direction: viability, normalised: higher = more viable cells remaining
Active means: 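Active when normalised viability falls below 80 percent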
Meaning of the calls: active = viability under 80%; inactive = viability 80% or more

Gene	technical replicate	viability, normalised (%)
CKMT1B (creatine kinase, mitochondrial 1B)	1	85.8
CKMT1B (creatine kinase, mitochondrial 1B)	2	77 (active)
CKMT1B (creatine kinase, mitochondrial 1B)	3	95.9
RBBP5	1	47.8 (active)
RBBP5	2	62.6 (active)
RBBP5	3	60 (active)
SLIT2 (slit guidance ligand 2)	1	40.2 (active)
SLIT2 (slit guidance ligand 2)	2	42.4 (active)
SLIT2 (slit guidance ligand 2)	3	51 (active)
FNTA (farnesyltransferase, CAAX box, subunit alpha)	1	67.5 (active)
FNTA (farnesyltransferase, CAAX box, subunit alpha)	2	62.5 (active)
FNTA (farnesyltransferase, CAAX box, subunit alpha)	3	77.8 (active)
FBXO5 (F-box protein 5)	1	54 (active)
FBXO5 (F-box protein 5)	2	51.1 (active)
FBXO5 (F-box protein 5)	3	69.3 (active)
SMPD1 (sphingomyelin phosphodiesterase 1)	1	42.8 (active)
SMPD1 (sphingomyelin phosphodiesterase 1)	2	54.9 (active)
SMPD1 (sphingomyelin phosphodiesterase 1)	3	45.6 (active)
AK5 (adenylate kinase 5)	1	95
AK5 (adenylate kinase 5)	2	95.5
AK5 (adenylate kinase 5)	3	102
RYR1 (ryanodine receptor 1)	1	29.1 (active)
RYR1 (ryanodine receptor 1)	2	33.6 (active)
RYR1 (ryanodine receptor 1)	3	36.7 (active)
APOE (apolipoprotein E)	1	72.5 (active)
APOE (apolipoprotein E)	2	91.2
APOE (apolipoprotein E)	3	76.2 (active)
PARP12 (poly(ADP-ribose) polymerase family member 12)	1	41.4 (active)
PARP12 (poly(ADP-ribose) polymerase family member 12)	2	52.6 (active)
PARP12 (poly(ADP-ribose) polymerase family member 12)	3	49.9 (active)
EPHB1 (EPH receptor B1)	1	100
EPHB1 (EPH receptor B1)	2	105
EPHB1 (EPH receptor B1)	3	103

In a second layout: results already given.
{"Gene": "CKMT1B (creatine kinase, mitochondrial 1B)", "technical replicate": "2", "viability, normalised (%)": "77 (active)"}
{"Gene": "CKMT1B (creatine kinase, mitochondrial 1B)", "technical replicate": "3", "viability, normalised (%)": 95.9}
{"Gene": "RBBP5", "technical replicate": "1", "viability, normalised (%)": "47.8 (active)"}
{"Gene": "RBBP5", "technical replicate": "2", "viability, normalised (%)": "62.6 (active)"}
{"Gene": "RBBP5", "technical replicate": "3", "viability, normalised (%)": "60 (active)"}
{"Gene": "SLIT2 (slit guidance ligand 2)", "technical replicate": "1", "viability, normalised (%)": "40.2 (active)"}
{"Gene": "SLIT2 (slit guidance ligand 2)", "technical replicate": "2", "viability, normalised (%)": "42.4 (active)"}

Further results follow:
Gene	technical replicate	viability, normalised (%)
SCYL3 (SCY1 like pseudokinase 3)	1	103
SCYL3 (SCY1 like pseudokinase 3)	2	82.3
SCYL3 (SCY1 like pseudokinase 3)	3	87.6
UBN1 (ubinuclein 1)	1	39 (active)
UBN1 (ubinuclein 1)	2	48.6 (active)
UBN1 (ubinuclein 1)	3	44.2 (active)
FBXO11 (F-box protein 11)	1	43.6 (active)
FBXO11 (F-box protein 11)	2	54 (active)
FBXO11 (F-box protein 11)	3	67 (active)
TADA1 (transcriptional adaptor 1)	1	62.4 (active)
TADA1 (transcriptional adaptor 1)	2	64.4 (active)
TADA1 (transcriptional adaptor 1)	3	64.8 (active)
HDGFL2 (HDGF like 2)	1	63.7 (active)
HDGFL2 (HDGF like 2)	2	58 (active)
HDGFL2 (HDGF like 2)	3	72.7 (active)
TDP1 (tyrosyl-DNA phosphodiesterase 1)	1	108
TDP1 (tyrosyl-DNA phosphodiesterase 1)	1	55.9 (active)
TDP1 (tyrosyl-DNA phosphodiesterase 1)	2	130
TDP1 (tyrosyl-DNA phosphodiesterase 1)	2	59.6 (active)
TDP1 (tyrosyl-DNA phosphodiesterase 1)	3	131
TDP1 (tyrosyl-DNA phosphodiesterase 1)	3	50.3 (active)
GDAP2 (ganglioside induced differentiation associated protein 2)	1	56.8 (active)
GDAP2 (ganglioside induced differentiation associated protein 2)	2	69.4 (active)
GDAP2 (ganglioside induced differentiation associated protein 2)	3	64 (active)
